Experimental findings from patent publication US12655174B2, “Adenosine A3 receptor agonists, preparation methods and uses thereof” (ZHEJIANG VIMGREEN PHARMACEUTICALS, LTD., priority 2020, dated 2026) are described below.

Chains of the proteins cited; added tags and fusions are not shown.
UniProt P0DMS8, whole entry: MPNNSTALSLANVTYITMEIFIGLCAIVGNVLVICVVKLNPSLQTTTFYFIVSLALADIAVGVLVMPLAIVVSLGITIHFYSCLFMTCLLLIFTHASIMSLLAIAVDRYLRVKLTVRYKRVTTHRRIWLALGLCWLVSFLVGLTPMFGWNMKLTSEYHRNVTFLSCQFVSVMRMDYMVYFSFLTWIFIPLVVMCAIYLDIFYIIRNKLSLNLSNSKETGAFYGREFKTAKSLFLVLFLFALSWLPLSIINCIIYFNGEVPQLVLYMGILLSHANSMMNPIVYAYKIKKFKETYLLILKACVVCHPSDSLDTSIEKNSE

The match of structure and compound is tentative.

In this experiment the target is ADORA3 receptor (Homo sapiens, UniProt P0DMS8). The experiment is described as follows: Agonistic effect on adenosine A3 receptor by FLIPR assay (calcium flux assay). The following applies: agonist mode. The experiment is classed as cell-based. Background: A change in cytosolic calcium serves as a functional read-out for many receptors and channels.

By EC50 is commonly meant the concentration giving half of the maximal effect. With `CNC(=O)[C@H]1O[C@@H](n2cnc3c(NCc4cc(C)cc(C)c4)nc(-c4cncc(F)c4)nc32)[C@H](O)[C@@H]1O`, the EC50 is 19.4 nM.
